Measured values from US20210223237A1, “COMPOSITIONS AND METHODS FOR STUDYING DRUG METABOLISM” (Boehringer Ingelheim International GmbH, priority 2020, published 2021).

Key:
[1] = Microsomal binding (fu,mic) using HLM-beads; settings: compound 1.0 μM, (SD)
in vitro [2] = settings: human, microsomes
[3] = Microsomal binding (fu,mic) using rapid equilibrium dialysis (RED); settings: compound 1.0 μM, (SD)
in vitro [4] = settings: human, microsomes; remark: listed apart in the source

For `CN1C(=O)CN=C(c2ccccc2)c2cc(Cl)ccc21` [Diazepam, diazepam], the “fu,mic” value ([1]; HLM 0.50 mg/ml) was 0.82 (0.07), the “fu,mic” value ([1]; HLM 1.0 mg/ml) was 0.66 (0.03) and the fraction unbound at 5 min, 1 μM (in vitro [2]) was 1. The “fu,mic” value ([3]; HLM 1.0 mg/ml) was 0.64 (0.02), the “fu,mic” value ([3]; HLM […]) was 0.96 (0.01) and the fraction unbound at 6 h, 1 μM (in vitro [4]) was 0.77.
